According to paper PMC11101406:
These are yes or no findings as the source states them, for the method shown. Binding seen in cells or lysates may run through a third protein. Some results given as binding are weak or reduced against the parent protein; the word gives no strength.

Protein sequences, listed by entry. Tags and fused reporters are not part of them.
UniProt Q14203: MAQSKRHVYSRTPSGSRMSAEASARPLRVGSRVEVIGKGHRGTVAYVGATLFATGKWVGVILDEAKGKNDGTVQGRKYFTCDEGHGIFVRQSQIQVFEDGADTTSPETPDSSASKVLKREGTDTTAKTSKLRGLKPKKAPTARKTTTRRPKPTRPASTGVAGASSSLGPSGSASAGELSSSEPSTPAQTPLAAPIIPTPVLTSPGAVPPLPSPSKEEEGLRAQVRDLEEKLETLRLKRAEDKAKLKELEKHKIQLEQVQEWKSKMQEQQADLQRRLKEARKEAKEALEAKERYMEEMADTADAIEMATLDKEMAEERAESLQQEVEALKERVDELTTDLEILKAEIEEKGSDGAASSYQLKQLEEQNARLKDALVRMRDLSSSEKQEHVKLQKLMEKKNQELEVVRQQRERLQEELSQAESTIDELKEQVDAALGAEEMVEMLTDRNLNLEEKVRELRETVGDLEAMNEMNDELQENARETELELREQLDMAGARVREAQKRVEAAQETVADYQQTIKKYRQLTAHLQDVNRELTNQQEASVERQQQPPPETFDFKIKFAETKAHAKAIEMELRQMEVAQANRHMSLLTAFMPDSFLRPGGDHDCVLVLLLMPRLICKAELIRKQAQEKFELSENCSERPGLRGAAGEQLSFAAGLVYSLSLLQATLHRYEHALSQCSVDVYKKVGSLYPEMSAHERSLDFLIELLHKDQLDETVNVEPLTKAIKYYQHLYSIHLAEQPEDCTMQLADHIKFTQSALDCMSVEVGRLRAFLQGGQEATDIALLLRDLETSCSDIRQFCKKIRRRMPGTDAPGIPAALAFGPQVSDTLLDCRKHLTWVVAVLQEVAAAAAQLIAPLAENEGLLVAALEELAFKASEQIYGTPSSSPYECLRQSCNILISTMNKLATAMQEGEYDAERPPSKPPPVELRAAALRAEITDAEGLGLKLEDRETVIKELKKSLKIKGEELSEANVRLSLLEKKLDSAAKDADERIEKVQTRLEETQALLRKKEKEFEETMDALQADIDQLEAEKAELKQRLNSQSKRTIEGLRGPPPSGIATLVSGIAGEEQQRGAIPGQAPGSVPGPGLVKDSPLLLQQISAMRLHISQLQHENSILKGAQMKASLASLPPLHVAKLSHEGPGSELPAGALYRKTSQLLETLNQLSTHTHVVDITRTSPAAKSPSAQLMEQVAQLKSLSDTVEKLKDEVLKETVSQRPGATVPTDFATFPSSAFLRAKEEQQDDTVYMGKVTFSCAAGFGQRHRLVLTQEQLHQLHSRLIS
UniProt P28023: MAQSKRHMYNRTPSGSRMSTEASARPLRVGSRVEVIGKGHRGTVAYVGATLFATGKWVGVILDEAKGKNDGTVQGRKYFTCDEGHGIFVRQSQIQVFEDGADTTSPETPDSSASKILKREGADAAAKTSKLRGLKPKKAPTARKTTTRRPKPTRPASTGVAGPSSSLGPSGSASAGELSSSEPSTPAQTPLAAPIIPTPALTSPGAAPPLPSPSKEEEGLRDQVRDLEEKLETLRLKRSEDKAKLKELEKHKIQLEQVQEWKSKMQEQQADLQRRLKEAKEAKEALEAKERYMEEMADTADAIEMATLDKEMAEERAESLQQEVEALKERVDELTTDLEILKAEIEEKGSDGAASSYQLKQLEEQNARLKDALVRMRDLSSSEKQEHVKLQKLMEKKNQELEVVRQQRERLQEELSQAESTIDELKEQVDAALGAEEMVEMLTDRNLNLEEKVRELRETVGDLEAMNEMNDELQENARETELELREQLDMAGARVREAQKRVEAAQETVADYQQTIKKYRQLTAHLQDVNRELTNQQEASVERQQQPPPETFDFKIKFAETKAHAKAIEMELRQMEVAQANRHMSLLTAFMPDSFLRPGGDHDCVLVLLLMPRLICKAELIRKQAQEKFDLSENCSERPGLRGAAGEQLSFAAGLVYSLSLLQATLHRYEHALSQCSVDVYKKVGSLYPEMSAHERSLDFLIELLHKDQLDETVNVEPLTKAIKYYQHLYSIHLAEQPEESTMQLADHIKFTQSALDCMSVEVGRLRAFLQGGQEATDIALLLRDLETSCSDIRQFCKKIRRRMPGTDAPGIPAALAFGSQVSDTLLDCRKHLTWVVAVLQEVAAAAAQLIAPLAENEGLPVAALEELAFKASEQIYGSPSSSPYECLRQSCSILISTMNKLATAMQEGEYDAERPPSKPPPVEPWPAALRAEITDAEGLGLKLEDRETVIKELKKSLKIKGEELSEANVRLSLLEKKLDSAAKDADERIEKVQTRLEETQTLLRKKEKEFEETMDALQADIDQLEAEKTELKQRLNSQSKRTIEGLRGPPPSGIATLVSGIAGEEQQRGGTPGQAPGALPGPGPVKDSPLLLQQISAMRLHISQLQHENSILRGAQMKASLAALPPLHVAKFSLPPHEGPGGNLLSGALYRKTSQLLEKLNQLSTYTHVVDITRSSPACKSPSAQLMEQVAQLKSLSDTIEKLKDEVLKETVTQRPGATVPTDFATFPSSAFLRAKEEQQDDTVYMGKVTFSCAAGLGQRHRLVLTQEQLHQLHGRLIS
UniProt Q9UJW0: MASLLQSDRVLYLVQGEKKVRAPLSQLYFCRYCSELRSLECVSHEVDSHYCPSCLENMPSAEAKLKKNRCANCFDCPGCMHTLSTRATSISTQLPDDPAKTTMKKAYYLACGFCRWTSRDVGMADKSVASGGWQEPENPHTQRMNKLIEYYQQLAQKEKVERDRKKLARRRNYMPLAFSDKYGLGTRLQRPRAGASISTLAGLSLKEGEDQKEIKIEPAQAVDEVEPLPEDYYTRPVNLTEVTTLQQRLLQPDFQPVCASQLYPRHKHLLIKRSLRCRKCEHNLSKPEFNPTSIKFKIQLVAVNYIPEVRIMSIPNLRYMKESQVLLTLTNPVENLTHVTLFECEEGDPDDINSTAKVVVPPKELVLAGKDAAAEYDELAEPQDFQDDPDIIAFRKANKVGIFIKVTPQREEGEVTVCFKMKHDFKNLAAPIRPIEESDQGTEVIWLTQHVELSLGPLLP

Tests used:
[1] = biological target: p150^Glued (endogenous, HEK293T) (human (endogenous in HEK293T)) (UniProt Q14203); assay: co-IP; endogenous p150^Glued with endogenous subunits of the dynactin-dynein complex from HEK293T lysates; cells treated with an mTOR inhibitor or transfected with pEGFPC1 or pEGFPC1-p50
[2] = biological target: AviGFP-tagged p150^Glued (full length) (UniProt P28023); assay: pull-down; Avi-tag pull down of in vivo biotinylated Avi-tagged baits from HEK293T cells, harsh washing; Western blot for endogenous p62 and Arp1

## p62 (dynactin Arp1-rod protein, endogenous, HEK293T) (from UniProt Q9UJW0 1-460)
[1]
  binding: binds
[2]
  binding: binds
